Binding data for three molecules are collected here from paper PMC11492288.

Results are given in words; binding and its absence hold for the method and conditions named. Binding seen in cells or lysates may run through a third protein. Some binding calls cover weakened binding; strength is not graded here. For part of these data: Sequences can lack the tags named with a protein.

Experiment [1] deals with T1, ΔNp63α-FLAG (UniProt Q9H3D4).
T1 sequence: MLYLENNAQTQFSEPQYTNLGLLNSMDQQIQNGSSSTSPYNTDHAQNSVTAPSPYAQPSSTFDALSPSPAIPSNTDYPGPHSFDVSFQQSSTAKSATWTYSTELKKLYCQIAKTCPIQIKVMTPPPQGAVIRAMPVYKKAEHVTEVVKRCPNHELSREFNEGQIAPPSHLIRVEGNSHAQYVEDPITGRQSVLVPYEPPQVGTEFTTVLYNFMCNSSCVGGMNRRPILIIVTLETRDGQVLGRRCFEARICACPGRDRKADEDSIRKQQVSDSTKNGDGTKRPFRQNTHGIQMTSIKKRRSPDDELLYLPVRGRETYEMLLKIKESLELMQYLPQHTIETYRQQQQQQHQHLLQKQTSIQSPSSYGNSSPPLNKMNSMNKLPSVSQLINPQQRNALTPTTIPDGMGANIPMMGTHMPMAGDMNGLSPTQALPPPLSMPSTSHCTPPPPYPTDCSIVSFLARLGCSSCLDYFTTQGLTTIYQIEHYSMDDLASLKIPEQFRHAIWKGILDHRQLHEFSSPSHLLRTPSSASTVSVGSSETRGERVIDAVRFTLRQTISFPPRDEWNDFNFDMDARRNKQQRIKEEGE
Nature of the experiment: co-IP; NLRP10-YFP and ΔNp63α-FLAG co-expressed in 293T cells; IP lysis/wash buffer, 1 mg total lysate; eluted with FLAG peptide; Western blot.

The target in experiment [2] is caspase-8 (endogenous) (human (endogenous in NHEK and Jurkat)) (UniProt Q14790). As to the kind of experiment: co-IP; DR5 DISC IP: Dynabeads coated with the agonistic anti-DR5 antibody conatumumab added to 2 x 10^6 cells for 1 h at 37 °C; lysis in DISC buffer (1% Triton X-100, 30 mM Tris-HCl pH 7.5, 150 mM NaCl, 10% glycerol); 5 washes; Western blot; WT and NLRP10 KO NHEKs, Jurkat cells with or without NLRP10 overexpression. On the technique in general: A western blot detects proteins with antibodies after separation by electrophoresis.

Experiment [3] concerns the target death receptor 5 (human (endogenous in NHEK and Jurkat)), O14763. The description is as above. Particulars: remark: other sources report otherwise.

B1: NLRP10-YFP (protein, UniProt Q86W26 1-655)
chain: MAMAKARKPREALLWALSDLEENDFKKLKFYLRDMTLSEGQPPLARGELEGLIPVDLAELLISKYGEKEAVKVVLKGLKVMNLLELVDQLSHICLHDYREVYREHVRCLEEWQEAGVNGRYNQVLLVAKPSSESPESLACPFPEQELESVTVEALFDSGEKPSLAPSLVVLQGSAGTGKTTLARKMVLDWATGTLYPGRFDYVFYVSCKEVVLLLESKLEQLLFWCCGDNQAPVTEILRQPERLLFILDGFDELQRPFEEKLKKRGLSPKESLLHLLIRRHTLPTCSLLITTRPLALRNLEPLLKQARHVHILGFSEEERARYFSSYFTDEKQADRAFDIVQKNDILYKACQVPGICWVVCSWLQGQMERGKVVLETPRNSTDIFMAYVSTFLPPDDDGGCSELSRHRVLRSLCSLAAEGIQHQRFLFEEAELRKHNLDGPRLAAFLSSNDYQLGLAIKKFYSFRHISFQDFFHAMSYLVKEDQSRLGKESRREVQRLLEVKEQEGNDEMTLTMQFLLDISKKDSFSNLELKFCFRISPCLAQDLKHFKEQMESMKHNRTWDLEFSLYEAKIKNLVKGIQMNNVSFKIKHSNEKKSQSQNLFSVKSSLSHGPKEEQKCPSVHGQKEGKDNIAGTQKEASTGKGRGTEETPKNTYI
Consider B1, for which, in experiment [1], the binding entry is reported as “binds”.

B2: NLRP10 overexpressed in Jurkat cells (protein, UniProt Q86W26 1-655)
chain: B1 chain
With B2, the binding entry in experiment [2] is “binds”.

B3: caspase-8 (endogenous), Q14790 1-479 (enzyme)
chain: MDFSRNLYDIGEQLDSEDLASLKFLSLDYIPQRKQEPIKDALMLFQRLQEKRMLEESNLSFLKELLFRINRLDLLITYLNTRKEEMERELQTPGRAQISAYRVMLYQISEEVSRSELRSFKFLLQEEISKCKLDDDMNLLDIFIEMEKRVILGEGKLDILKRVCAQINKSLLKIINDYEEFSKERSSSLEGSPDEFSNGEELCGVMTISDSPREQDSESQTLDKVYQMKSKPRGYCLIINNHNFAKAREKVPKLHSIRDRNGTHLDAGALTTTFEELHFEIKPHDDCTVEQIYEILKIYQLMDHSNMDCFICCILSHGDKGIIYGTDGQEAPIYELTSQFTGLKCPSLAGKPKVFFIQACQGDNYQKGIPVETDSEEQPYLEMDLSSPQTRYIPDEADFLLGMATVNNCVSYRNPAEGTWYIQSLCQSLRERCPRGDDILTILTEVNYEVSNKDDKKNMGKQMPQPTFTLRKKLVFPSD
For B3, the binding entry in experiment [3] is on record as “binds”.
